Results are given in words; binding and its absence hold for the method and conditions named. In cells and extracts the contact can be indirect. Binding calls can cover weak binding; strength is not graded here. Tags and fused reporters may be left off the sequences shown.
T1: myc-Dvl2 (Xenopus Dishevelled 2) (Xenopus) (UniProt P51142)
T1 sequence: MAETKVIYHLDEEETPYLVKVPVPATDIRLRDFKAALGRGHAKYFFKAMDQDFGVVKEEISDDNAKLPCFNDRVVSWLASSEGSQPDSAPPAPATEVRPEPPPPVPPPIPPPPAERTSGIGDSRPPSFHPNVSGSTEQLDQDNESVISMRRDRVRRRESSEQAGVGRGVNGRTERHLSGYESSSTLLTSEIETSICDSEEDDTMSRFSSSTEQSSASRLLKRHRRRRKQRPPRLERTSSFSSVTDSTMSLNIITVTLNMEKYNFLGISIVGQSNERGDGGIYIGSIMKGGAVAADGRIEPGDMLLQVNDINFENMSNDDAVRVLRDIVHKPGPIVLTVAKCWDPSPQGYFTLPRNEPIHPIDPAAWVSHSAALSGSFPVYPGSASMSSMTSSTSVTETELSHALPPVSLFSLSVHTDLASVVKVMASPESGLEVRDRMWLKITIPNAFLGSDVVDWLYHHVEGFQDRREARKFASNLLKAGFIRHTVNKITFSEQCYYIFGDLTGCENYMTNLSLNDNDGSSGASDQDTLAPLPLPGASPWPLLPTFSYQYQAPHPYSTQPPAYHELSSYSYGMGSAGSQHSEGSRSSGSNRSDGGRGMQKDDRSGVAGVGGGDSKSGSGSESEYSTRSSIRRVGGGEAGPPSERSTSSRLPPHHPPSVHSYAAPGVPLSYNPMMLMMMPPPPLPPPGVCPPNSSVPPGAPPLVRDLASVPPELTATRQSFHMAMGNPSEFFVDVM

B1: myc-Dvl2 (Xenopus Dishevelled 2) (protein, UniProt P51142 1-736)
chain: MAETKVIYHLDEEETPYLVKVPVPATDIRLRDFKAALGRGHAKYFFKAMDQDFGVVKEEISDDNAKLPCFNDRVVSWLASSEGSQPDSAPPAPATEVRPEPPPPVPPPIPPPPAERTSGIGDSRPPSFHPNVSGSTEQLDQDNESVISMRRDRVRRRESSEQAGVGRGVNGRTERHLSGYESSSTLLTSEIETSICDSEEDDTMSRFSSSTEQSSASRLLKRHRRRRKQRPPRLERTSSFSSVTDSTMSLNIITVTLNMEKYNFLGISIVGQSNERGDGGIYIGSIMKGGAVAADGRIEPGDMLLQVNDINFENMSNDDAVRVLRDIVHKPGPIVLTVAKCWDPSPQGYFTLPRNEPIHPIDPAAWVSHSAALSGSFPVYPGSASMSSMTSSTSVTETELSHALPPVSLFSLSVHTDLASVVKVMASPESGLEVRDRMWLKITIPNAFLGSDVVDWLYHHVEGFQDRREARKFASNLLKAGFIRHTVNKITFSEQCYYIFGDLTGCENYMTNLSLNDNDGSSGASDQDTLAPLPLPGASPWPLLPTFSYQYQAPHPYSTQPPAYHELSSYSYGMGSAGSQHSEGSRSSGSNRSDGGRGMQKDDRSGVAGVGGGDSKSGSGSESEYSTRSSIRRVGGGEAGPPSERSTSSRLPPHHPPSVHSYAAPGVPLSYNPMMLMMMPPPPLPPPGVCPPNSSVPPGAPPLVRDLASVPPELTATRQSFHMAMGNPSEFFVDVM
B2: myc-Dvl3 (Xenopus Dishevelled 3) (protein, UniProt Q6DKE2 1-717)
chain: MGETKVIYHLDEQETPYLVKLPVPAEKVTLGDFKNILNKPNYKFFFKSMDDDFGVVKEEISDDNAKLPCFNGRVVCWLVSADGSQSDAGSVCADIQSDLPPPIERTGGIGDSRPPSFHPNTRGSQENLDNETETDSVVSARRERPGRKETSEHATRINGTSKMERRRDTGGYESSSTLMSSELDSTSFFDSDEDDSTSRFSNSTEQSSASRLMRRHKRRRRKPKAPQIERSSSFSSITDSTMSLNIITVTLNMEKYNFLGISIVGQSNERGDGGIYIGSIMKGGAVAADGRIEPGDMLLQVNDTNFENMSNDDAVRVLRDIVHKPGPITLTVAKCWDPSPRNCFTLPRSEPIRPIDPAAWVSHTAAMTGTYPAYGMSPSMSTITSTSSSITSSIPETERFDDFQLSIHSDMVTIVKAMSSSESGLEVRDRMWLKITIPNAFIGSDVVDWLYHHVEGFTDRREARKYASNLLKAGYIRHTVNKITFSEQCYYIFGDLCGNMANLSLNDHDGSSGTSDQDTLAPLPHPGAAPWPIAFQYQYPLPHPYSPHPGFPDPAYIYGGGSAGSQHSEGSRSSGSNRSSTEKRKDRETKGGDSKSGGSGSESDHTTRSSLRRDRAASERSVPASEHSHRSHHSIAHSIRSHHTHQSFGPPGIPPLYGAPMMMMPAPVSVMGPPGAPPSRDLASVPPELTASRQSFRMAMGNPSEFFVDVIKEFWGV

Columns and labels:
[1] = target: T1, myc-Dvl2 (Xenopus Dishevelled 2) (Xenopus); test: co-IP; Figure 5C, D: Flag-Arrb2, myc-Dvl2, HA-Gβ1 and HA-Gγ2 overexpressed in HEK 293T, with or without the Gβ-sequestering β-ARKct; Flag-Arrb2 (C) or myc-Dvl2 (D) precipitated; NP-40 buffer; 4 h at 4°C with antibody and protein G-magnetic beads; Western blot
[2] = target: Flag-β-Arrestin2 (Xenopus); test: co-IP; Figure 5A: Flag-Arrb2 co-expressed with HA-Gβ1 and HA-Gγ2, with or without Dvl1, Dvl2 or Dvl3, in HEK 293T; NP-40 buffer (20 mM Tris-HCl pH 7.4, 150 mM NaCl, 2 mM EDTA, 1% NP-40); 4 h at 4°C with antibody and protein G-magnetic beads; Western blot
[3] = target: Flag-β-Arrestin2 (Xenopus); test: co-IP; Figure 5C, D: Flag-Arrb2, myc-Dvl2, HA-Gβ1 and HA-Gγ2 overexpressed in HEK 293T, with or without the Gβ-sequestering β-ARKct; Flag-Arrb2 (C) or myc-Dvl2 (D) precipitated; NP-40 buffer; 4 h at 4°C with antibody and protein G-magnetic beads; Western blot

| Molecule | binding [1] | binding [2] | binding [3] |
| --- | --- | --- | --- |
| Flag-β-Arrestin2 (Xenopus) | binds |  |  |
| B1 |  | binds | binds |
| B2 |  | binds |  |

Reference: publication PMC3906129
